# Source: PubChem BioAssay (NCATS)
# By UniProt entry, the sequences of proteins in these tests, tags left out. Where a name states a change or a piece, a line headed by the entry shows the natural chain unless it says otherwise. Residues count along the entry.
# UniProt O89049, whole entry, looked up: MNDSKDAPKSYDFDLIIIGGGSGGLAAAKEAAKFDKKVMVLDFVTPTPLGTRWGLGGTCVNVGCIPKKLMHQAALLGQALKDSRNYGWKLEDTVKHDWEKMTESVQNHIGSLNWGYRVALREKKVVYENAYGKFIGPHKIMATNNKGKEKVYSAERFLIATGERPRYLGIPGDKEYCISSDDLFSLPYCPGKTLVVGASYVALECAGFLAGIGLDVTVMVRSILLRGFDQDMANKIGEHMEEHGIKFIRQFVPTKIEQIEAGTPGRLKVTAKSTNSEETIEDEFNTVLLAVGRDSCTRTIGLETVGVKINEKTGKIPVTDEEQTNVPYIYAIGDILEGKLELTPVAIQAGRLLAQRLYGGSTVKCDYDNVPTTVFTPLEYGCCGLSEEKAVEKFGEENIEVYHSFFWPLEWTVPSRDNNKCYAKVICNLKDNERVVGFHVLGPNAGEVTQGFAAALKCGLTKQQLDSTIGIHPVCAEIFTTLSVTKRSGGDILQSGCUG
# UniProt Q6LX38, 1-543: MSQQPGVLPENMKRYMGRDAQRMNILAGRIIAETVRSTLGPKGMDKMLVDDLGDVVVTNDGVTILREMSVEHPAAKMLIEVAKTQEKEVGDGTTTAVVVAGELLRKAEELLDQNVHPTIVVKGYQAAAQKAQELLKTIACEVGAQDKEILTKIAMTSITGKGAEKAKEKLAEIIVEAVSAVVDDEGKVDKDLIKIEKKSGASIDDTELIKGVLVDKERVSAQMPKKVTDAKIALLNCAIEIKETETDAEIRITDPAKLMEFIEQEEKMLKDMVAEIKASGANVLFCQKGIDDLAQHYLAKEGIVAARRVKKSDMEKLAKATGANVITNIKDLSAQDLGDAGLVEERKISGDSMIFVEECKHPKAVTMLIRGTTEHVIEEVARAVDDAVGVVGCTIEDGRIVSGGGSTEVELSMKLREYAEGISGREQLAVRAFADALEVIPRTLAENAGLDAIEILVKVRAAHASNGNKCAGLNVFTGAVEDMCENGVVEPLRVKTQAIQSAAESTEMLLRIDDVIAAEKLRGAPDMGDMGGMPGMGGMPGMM
# UniProt P43220, whole entry, looked up: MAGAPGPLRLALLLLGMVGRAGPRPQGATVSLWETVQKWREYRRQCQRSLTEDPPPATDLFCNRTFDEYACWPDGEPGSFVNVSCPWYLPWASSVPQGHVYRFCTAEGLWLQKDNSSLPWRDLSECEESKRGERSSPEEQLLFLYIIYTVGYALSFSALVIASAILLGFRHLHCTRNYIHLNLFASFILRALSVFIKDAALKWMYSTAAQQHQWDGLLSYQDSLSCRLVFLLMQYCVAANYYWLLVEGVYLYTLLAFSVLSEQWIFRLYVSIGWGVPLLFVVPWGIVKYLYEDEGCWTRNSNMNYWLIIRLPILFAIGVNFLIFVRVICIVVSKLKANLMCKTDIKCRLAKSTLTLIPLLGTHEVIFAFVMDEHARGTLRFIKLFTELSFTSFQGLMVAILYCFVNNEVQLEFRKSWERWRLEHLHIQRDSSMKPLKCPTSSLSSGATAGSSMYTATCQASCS
# UniProt Q03431: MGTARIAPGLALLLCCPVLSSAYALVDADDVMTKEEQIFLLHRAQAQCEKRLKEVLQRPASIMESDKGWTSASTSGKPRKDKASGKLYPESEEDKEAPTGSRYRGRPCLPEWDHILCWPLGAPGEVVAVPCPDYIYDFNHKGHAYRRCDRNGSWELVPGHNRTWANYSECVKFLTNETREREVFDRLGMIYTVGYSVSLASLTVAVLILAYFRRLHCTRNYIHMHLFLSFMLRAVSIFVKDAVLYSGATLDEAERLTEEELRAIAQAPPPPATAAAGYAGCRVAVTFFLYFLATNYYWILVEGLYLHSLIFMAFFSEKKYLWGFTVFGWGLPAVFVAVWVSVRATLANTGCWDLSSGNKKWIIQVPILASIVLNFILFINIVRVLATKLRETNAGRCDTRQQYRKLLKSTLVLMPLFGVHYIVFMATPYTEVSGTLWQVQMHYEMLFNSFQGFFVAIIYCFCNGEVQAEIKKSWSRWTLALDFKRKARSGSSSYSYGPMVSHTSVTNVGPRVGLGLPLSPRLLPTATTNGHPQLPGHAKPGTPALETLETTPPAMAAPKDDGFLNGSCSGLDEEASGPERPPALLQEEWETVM
# UniProt P10635, whole entry, looked up: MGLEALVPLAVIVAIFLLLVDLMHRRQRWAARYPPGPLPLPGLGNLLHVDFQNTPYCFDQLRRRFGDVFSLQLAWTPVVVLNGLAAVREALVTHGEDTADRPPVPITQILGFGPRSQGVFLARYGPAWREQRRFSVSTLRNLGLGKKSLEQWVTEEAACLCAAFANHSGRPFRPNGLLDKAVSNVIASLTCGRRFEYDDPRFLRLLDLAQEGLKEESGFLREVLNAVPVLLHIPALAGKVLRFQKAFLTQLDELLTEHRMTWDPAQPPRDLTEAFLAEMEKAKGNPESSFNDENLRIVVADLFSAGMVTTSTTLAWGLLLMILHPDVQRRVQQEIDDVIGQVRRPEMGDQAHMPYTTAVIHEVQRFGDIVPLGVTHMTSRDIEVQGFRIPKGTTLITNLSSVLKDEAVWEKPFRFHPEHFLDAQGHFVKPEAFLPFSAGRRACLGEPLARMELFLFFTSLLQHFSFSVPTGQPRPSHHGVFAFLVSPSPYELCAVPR
# UniProt P33261, whole entry, looked up: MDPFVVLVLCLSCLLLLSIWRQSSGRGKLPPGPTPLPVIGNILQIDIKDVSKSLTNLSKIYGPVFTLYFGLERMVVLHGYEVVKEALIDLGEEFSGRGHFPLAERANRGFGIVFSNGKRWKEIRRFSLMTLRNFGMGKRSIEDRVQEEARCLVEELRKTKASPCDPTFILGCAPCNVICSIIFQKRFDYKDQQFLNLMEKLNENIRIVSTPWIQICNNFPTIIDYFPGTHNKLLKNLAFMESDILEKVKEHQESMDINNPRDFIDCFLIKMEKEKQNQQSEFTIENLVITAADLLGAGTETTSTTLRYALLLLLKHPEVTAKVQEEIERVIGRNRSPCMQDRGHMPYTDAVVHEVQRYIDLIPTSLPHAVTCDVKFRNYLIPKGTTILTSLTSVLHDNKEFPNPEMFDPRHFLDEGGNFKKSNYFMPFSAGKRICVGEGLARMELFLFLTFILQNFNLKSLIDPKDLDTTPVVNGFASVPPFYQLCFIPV
# UniProt Q8NER1, whole entry, looked up: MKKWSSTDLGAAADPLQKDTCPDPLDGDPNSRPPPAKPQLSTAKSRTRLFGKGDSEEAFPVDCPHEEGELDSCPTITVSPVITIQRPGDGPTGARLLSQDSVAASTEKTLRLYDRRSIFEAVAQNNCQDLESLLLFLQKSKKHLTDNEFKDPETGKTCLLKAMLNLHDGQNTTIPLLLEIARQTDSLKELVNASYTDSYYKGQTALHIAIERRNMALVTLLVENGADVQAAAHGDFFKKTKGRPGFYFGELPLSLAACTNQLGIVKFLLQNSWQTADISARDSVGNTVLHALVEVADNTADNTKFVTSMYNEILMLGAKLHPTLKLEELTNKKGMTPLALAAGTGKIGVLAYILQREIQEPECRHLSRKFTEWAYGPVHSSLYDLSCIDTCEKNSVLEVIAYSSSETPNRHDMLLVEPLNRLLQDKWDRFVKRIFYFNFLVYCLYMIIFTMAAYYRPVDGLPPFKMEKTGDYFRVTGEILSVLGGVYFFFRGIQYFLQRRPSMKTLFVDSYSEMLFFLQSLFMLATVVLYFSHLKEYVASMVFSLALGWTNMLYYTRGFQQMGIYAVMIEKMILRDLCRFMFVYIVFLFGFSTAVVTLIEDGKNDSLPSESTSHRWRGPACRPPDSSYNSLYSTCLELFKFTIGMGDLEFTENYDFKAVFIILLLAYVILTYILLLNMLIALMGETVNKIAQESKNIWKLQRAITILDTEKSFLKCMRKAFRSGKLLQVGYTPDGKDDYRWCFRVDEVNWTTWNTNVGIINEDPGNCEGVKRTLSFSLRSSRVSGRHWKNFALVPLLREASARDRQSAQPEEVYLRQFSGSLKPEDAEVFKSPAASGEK
# UniProt Q9GZX7: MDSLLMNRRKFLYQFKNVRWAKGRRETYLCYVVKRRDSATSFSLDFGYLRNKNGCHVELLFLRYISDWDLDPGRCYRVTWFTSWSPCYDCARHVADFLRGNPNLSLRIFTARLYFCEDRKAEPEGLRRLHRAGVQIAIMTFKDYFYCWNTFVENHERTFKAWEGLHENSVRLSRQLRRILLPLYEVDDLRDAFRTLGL
# UniProt P16066: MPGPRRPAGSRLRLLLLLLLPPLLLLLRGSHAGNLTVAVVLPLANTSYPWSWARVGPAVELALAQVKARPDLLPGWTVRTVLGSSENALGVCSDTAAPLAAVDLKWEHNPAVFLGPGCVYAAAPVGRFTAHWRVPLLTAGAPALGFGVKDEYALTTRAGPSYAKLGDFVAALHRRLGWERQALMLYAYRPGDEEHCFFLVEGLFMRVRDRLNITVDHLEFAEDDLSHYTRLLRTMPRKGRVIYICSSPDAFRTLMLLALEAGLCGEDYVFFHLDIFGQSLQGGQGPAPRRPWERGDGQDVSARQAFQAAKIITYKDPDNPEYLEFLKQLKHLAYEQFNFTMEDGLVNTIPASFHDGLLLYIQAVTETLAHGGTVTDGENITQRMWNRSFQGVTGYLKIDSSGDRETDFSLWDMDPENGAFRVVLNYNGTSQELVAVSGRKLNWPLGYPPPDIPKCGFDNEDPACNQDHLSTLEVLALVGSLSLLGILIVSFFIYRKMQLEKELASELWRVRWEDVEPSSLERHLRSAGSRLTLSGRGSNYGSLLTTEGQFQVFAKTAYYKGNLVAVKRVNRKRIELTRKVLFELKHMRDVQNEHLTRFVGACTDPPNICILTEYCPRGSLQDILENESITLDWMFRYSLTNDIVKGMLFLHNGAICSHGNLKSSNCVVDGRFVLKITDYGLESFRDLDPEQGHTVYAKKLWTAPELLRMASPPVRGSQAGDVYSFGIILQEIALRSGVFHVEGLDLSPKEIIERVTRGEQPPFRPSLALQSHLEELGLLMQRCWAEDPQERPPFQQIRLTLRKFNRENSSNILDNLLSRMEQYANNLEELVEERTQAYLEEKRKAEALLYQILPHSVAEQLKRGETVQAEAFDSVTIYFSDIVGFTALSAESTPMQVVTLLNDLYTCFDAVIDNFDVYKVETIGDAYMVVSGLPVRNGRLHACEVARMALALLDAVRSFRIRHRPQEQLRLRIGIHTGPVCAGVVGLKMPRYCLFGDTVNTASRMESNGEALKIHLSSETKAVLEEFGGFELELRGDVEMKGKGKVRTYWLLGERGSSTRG
# UniProt Q07869: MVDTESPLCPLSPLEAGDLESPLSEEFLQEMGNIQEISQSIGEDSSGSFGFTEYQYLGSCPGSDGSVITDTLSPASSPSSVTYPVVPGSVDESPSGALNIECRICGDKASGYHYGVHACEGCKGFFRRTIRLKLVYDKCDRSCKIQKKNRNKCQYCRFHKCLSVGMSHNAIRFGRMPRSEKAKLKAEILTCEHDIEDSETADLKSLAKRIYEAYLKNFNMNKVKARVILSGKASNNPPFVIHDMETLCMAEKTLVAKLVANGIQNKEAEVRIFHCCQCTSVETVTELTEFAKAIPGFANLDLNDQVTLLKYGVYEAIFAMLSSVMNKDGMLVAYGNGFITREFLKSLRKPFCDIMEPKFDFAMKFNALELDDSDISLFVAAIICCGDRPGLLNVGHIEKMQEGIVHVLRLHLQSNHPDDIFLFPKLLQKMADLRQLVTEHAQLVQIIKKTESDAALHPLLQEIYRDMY
# Several values for one entry are separate records, joined by “and”; a condition that tells them apart may be missing. Equal entries are not always repeated. The inconclusive results got no clear call from the source; some entries with a clear call stand among them for comparison. For some assays here: Where the call is inconclusive, the potency comes from a doubtful curve fit. A structure can be active in one record and inactive in another. Activity calls are given as the source filed them. Unless noted, calls come from the whole dose curve; as a rule, active = well fitted curve in the direction sought with a large enough effect; inconclusive = small, poorly fitted or top-dose-only effect, or another doubt; inactive = no such curve, though single readings can be large; an effect the other way counts as inactive or inconclusive.
# Experiments:
# [1] = target: Beta-2 adrenergic receptor (Homo sapiens) (UniProt P07550); experiment: qHTS validation assay of beta-arrestin-biased ligands of beta2-adrenergic receptor (AID 485366)
# How it was run: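 qHTS, Tango cells, 1500 cells/well, DMEM + 1% FBS. Cpd 18 hr at 37 degrees C. Luciferin/ATP/CoA detection mix, 15 min RT, luminescence read. %Activity from corrected signal; CRC fit, curve class.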
# [2] = target: Thioredoxin reductase 1, cytoplasmic (Rattus norvegicus) (UniProt O89049); experiment: qHTS Assay for Inhibitors of Mammalian Selenoprotein Thioredoxin Reductase 1 (TrxR1) (AID 488773); conditions: Potency: inhibition; note: potency is the fitted concentration of half-maximal effect; nearly all actives have a fitted effect of over 40% in size
# How it was run: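 Inhibition is scored from the loss of NADPH fluorescence between first and last reads of an 8-min kinetic run. Selenite (400 uM) was the substrate, added after 15 min compound preincubation at room temperature.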
# [3] = target: Methanococcus maripaludis chaperonin (MmCpn) (UniProt Q6LX38); experiment: High-Throughput Screening for Modulators of Cytosolic Chaperonin Activity: MmCpn Primary Screen (AID 488978);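 note: 50 nM MmCpn enzyme hydrolysing 30 µM ATP at 37 °C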
# How it was run: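 MmCpn (50 nM final) was preincubated with compound 5 min at RT, then 30 uM ATP (final) was added and the reaction ran 10 min at 37C. ADP produced was detected by Transcreener HTRF (ex 320 nm; em 590/665 nm).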
# [4] = target: phosphoglycerate mutase (Leishmania major) (UniProt Q4Q090); experiment: qHTS Validation Assay to Find Inhibitors of Phosphoglycerate Mutase (AID 504548); conditions: Potency: inhibition qHTS; note: potency is the fitted concentration of half-maximal effect
# How it was run: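 Lm PGAM at 1.25 nM final with substrate in 100 mM TEA pH 7.6, 5 mM MgCl2, 0.01% Tween-20; 45 min at room temperature. Kinase-GloPlus added, 10 min, end-point luminescence read.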
# [5] = qHTS for Inhibitors of ATXN expression: Validation (AID 588378); note: potency is the fitted concentration of half-maximal effect; nearly all actives have a fitted effect of over 75% in size
# How it was run: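 Luminescence from an ATXN2-FFLuc reporter in HEK293 cells served as read-out after 24 h compound treatment at 37 degrees C; CellTiter-Fluor fluorescence was recorded first to assess viability.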
# [6] = target: Glucagon-like peptide 1 receptor (Homo sapiens) (UniProt P43220); experiment: qHTS of GLP-1 Receptor Agonists: LOPAC Validation (AID 624148); conditions: GLP-1R agonist cell assay; activation: at 46.1 µM (top of the series);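 note: luminescence from a luciferase reporter switched on by cAMP; potency is the fitted concentration of half-maximal effect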
# How it was run: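 Agonism scored as increased luciferase luminescence driven by cAMP in HEK293 clones carrying GLP-1R. Cells settled 12 hours, received compound for 4-6 hr at 37 deg C, 5% CO2, and were read after 12 min detection reagent at RT.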
# [7] = target: Parathyroid hormone/parathyroid hormone-related peptide receptor (Homo sapiens) (UniProt Q03431); experiment: qHTS for PTHR1 Agonists: Optimization Screen against the NCGC LOPAC library (AID 1347079);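 note: GloSensor cAMP luminescence in HEK-293 GP2 cells expressing human PTHR1 with IBMX; potency is the fitted concentration of half-maximal effect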
# How it was run: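 HEK-293 GP2 cells, PTHR1 + GloSensor cAMP; 3000 cells/well, o/n. Luciferin + IBMX 0.5mM each (stock), 1 hr 37C. Cpd titration, 1 hr 37C. Lum after 15 min RT. Ctrl M-PTH(1-15) top 10uM.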
# [8] = target: Cytochrome P450 2D6 (Homo sapiens) (UniProt P10635); experiment: qHTS Assay for Inhibitors and Substrates of Cytochrome P450 2D6 (AID 891); note: nearly all actives have a fitted effect of over 60% in size; note: potency is the fitted concentration of half-maximal effect
# How it was run: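 Luminescent read-out of luciferin formed by 5 nM human CYP2D6 demethylating 30 uM Luciferin-ME EGE (Km level) over 60 min at room temperature after NADPH regeneration addition. Data normalized to full inhibition by 1.43 uM quinidine.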
# [9] = target: Cytochrome P450 2C19 (Homo sapiens) (UniProt P33261); experiment: qHTS Assay for Inhibitors and Substrates of Cytochrome P450 2C19 (AID 899); conditions: recombinant CYP2C19, luciferin-H EGE luminescence; series mostly up to 57.1 µM; note: potency is the fitted concentration of half-maximal effect; nearly all actives have a fitted effect of over 60% in size
# How it was run: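 Luminescence readout of luciferin formed from 10uM Luciferin-H EGE (KM level) by 5 nM CYP2C19 in 50mM KPO4. 60 min NADPH-driven reaction at 37C after 10 min compound preincubation; data scaled to 57uM ketoconazole inhibition.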
# [10] = target: Transient receptor potential cation channel subfamily V member 1 (Homo sapiens) (UniProt Q8NER1); experiment: HTS Assay for Compounds that Act as Enhancers of the Vanilloid Receptor 1 (AID 488979)
# How it was run: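 Calcium influx kinetics via Fluo-8 (480/520 nm) in TRPV1-expressing cells, 2000/well cultured overnight at 35.5C. Compound-alone read 3 min (agonist phase), followed by EC20 capsaicin challenge for 2 min (enhancer phase).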
# [11] = qHTS for Inhibitors of ATXN expression: Validation of Cytotoxic Assay (AID 588349)
# How it was run: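 Titrated compounds are added to cultured HEK293 cells, which are then held at 37 degrees C for 72 hr; loss of intracellular ATP, measured with CellTiter Glo, indicates toxicity.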
# [12] = target: Single-stranded DNA cytosine deaminase (Homo sapiens) (UniProt Q9GZX7); experiment: Validation qHTS assay for inhibitors of Activation Induced Cytidine Deaminase (AID): AID signal (AID 1347429)
# How it was run: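 Steps: dispense AID with UDG; pin-transfer compound up to 114 uM final; add DJC20/DJC23 substrate and hold 4 hr at room temperature; add NaOH, hold 30 min; read FRET signal (540/590 nm).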
# [13] = target: Endonuclease 4 (Escherichia coli (strain K12)) (UniProt P0A6C1); experiment: Counterscreen for APE1 Inhibitors: qHTS Validation Assay for Inhibitors of Endonuclease IV (AID 1708)
# How it was run: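 Incision of a double-stranded 50 nM TAMRA/BHQ-2 abasic substrate was followed kinetically (525/598 nm, reads every 60 s) after 15 min enzyme–compound preincubation with 2 nM EndoIV in pH 7.5 Tris buffer with MgCl2, DTT and Tween-20; concentration-response format.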
# [14] = target: Atrial natriuretic peptide receptor 1 (Homo sapiens) (UniProt P16066); experiment: Natriuretic polypeptide receptor (hNpr1) antagonism - Pilot screen (AID 1347049; calls by dose curve;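 note: HEK293 cells with hNpr1 and GloSensor cGMP luciferase stimulated by 0.1 nM hNppA; agonist-evoked cGMP luminescence read 20 min after hNppA addition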)
# How it was run: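 Receptor antagonism read as cGMP-dependent luminescence in hNpr1/pGS-40F HEK293 cells: pre-read after 30 min compound exposure, post-read 20 min after hNppA agonist at 0.1 nM final, all at room temperature, protected from light; A-71915 titration as control.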
# [15] = Validation qHTS assay for inhibitors of Activation Induced Cytidine Deaminase (AID): UDG Counterscreen signal (AID 1347427)
# How it was run: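 Fluorescence at 560 nm excitation, 665 nm emission reports UDG signal after 250 mM NaOH (2x) addition and 30 min. Enzymes (AID 1 uM, UDG 2 U/mL, at 4/3x) preincubated 10 min with compound, then 4 h with 4x 250 nM DJC20/DJC23 substrate at room temperature.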
# [16] = system: Zika virus NS2B-NS3 protease; experiment: Primary screen GU AMC qHTS for Zika virus inhibitors (AID 1347154); note: potency is the fitted concentration of half-maximal effect; nearly all actives have a fitted effect of over 70% in size
# How it was run: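 Fluorogenic AMC-substrate cleavage by noncovalent NS2B-NS3 protease complex (25 nM, pH 8.0 Tris buffer with Tween 20) followed for 15 minutes at room temperature (~20% conversion). Percent inhibition from ex340/em450 signal change, fitted by 4-parameter Hill equation.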
# [17] = Quantitative High-Throughput drug screen in 47 multiple myeloma cell lines against the NCATS MIPE library collection: KMM1_JCRB cell viability assay (AID 1918960); note: potency is the fitted concentration of half-maximal effect; nearly all actives have a fitted effect of over 30% in size
# How it was run: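 Cell viability inhibition in this qHTS is measured via ATP content (CellTiter-Glo) after 48 h drug exposure at 37 °C. Wells hold 500 cells; DMSO-treated wells define 100% and medium-only wells 0%.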
# [18] = target: Peroxisome proliferator-activated receptor alpha (Homo sapiens) (UniProt Q07869); experiment: qHTS assay for small molecule agonists of the peroxisome proliferator-activated receptor alpha (PPARalpha) signaling pathway (AID 651778); conditions: PathHunter PPARalpha complementation, chemiluminescence, 6 h; note: potency is the fitted concentration of half-maximal effect
# How it was run: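 Chemiluminescence from complemented enzyme reported PPARalpha activation in cells after 6 hr of compound treatment at 37 C. The detection reagent was incubated for 60 min at room temperature, and compounds were scored as agonists.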
# [19] = High Content Imaging Cell-Based qHTS for Inhibitors of the mTORC1 Signaling Pathway in MEF (Tsc2-/-, p53-/-) Cells (AID 2666);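 note: percent of cells scored positive for phospho-rpS6 Ser235/236 immunostaining by imaging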
# How it was run: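 Tsc2-/-, p53-/- MEFs (empty-vector stable) grown in DMEM + 10% FBS were exposed to compounds for 24 hrs at 37 degree Celsius, fixed, and stained with Alexa-488 anti-phospho-rpS6 Ser235/236 plus Hoechst. Imaging gave the percentage of positive cells per well.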
# [20] = Cytometry Cell-Based qHTS for Inhibitors of the mTORC1 Signaling Pathway in MEF cells (AID 2668);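 note: Tsc2-/- p53-/- mouse embryonic fibroblasts stably re-expressing wild-type Tsc2; percent cells positive for phospho-rpS6 Ser235/236 relative to propidium iodide stain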
# How it was run: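 WT MEFs (Tsc2-/-, p53-/- stably re-expressing WT Tsc2) in DMEM + 10% FBS received compounds 24 hrs after plating, for 24 hrs at 37 degree Celsius. Fixed cells stained with Alexa-488 anti-phospho-rpS6 Ser235/236 and propidium iodide; laser-scanning cytometry read-out.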
compound,measurement,setting,value
CCC(NC(C)C)C(O)c1ccc(O)c(O)c1 (stereo not given),Potency,[1],"inconclusive: 2.59 µM [rising, partial curve]"
same,Potency,[2],"inconclusive: 33.6 µM [inhibitor, partial curve]"
same,Potency,[3],inactive
same,Potency,[4],"inconclusive: 37.9 µM [inhibitor, partial curve, poor fit]"
same,Potency,[5],"inconclusive: 25.1 µM [inhibitor, single point]"
same,Potency,[6],"inconclusive: 1.16 µM [activator, full curve]"
same,Potency,[7],"inconclusive: 423 nM [activator, partial curve, poor fit]"
CC(C)C(=O)c1c(C(C)C)nn2ccccc12,Potency,[8],inactive and active: 39.8 nM
same,Potency,[9],"inconclusive: 3.16 µM [inhibitor, full curve, poor fit]"
same,Potency,[10],inactive
same,Potency,[11],inactive
same,Potency,[12],inactive
C1CCc2nnnn2CC1,Potency,[13],inactive
same,Potency,[14],inactive
same,Potency,[15],inactive
COc1c(N2C[C@@H]3CCCN[C@H]3C2)c(F)cc2c(=O)c(C(=O)O)cn(C3CC3)c12,Potency,[16],active: 30.4 µM
same,Potency,[17],"inconclusive: 33.2 µM [cytotoxic, single point]"
CCCCCCCCCCCCCCCC(=O)O,Potency,[18],"inconclusive: 17.8 µM [activator, partial curve, poor fit]"
CN(C)C(=O)Oc1ccc[n+](C)c1,Potency,[19],inactive
same,Potency,[20],inactive

# 2 neighbouring records out of the list so far, quoted:
compound,measurement,setting,value
CCC(NC(C)C)C(O)c1ccc(O)c(O)c1 (stereo not given),Potency,[1],"inconclusive: 2.59 µM [rising, partial curve]"
same,Potency,[2],"inconclusive: 33.6 µM [inhibitor, partial curve]"
